Reference: PubChem BioAssay AID504744 (Drosophila RNAi Screening Center, 2011)
The screen tested about 23,000 reagents; below is an unselected part of those with a known target gene and a result. Of all reagents, 98 (0.43%) were called active. 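Only hit calls are given; the phospho-dAkt signals, z-scores and hit direction were not deposited.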 The numbers tell different reagents against one gene apart. A plus sign joins genes that one reagent is predicted to hit.

Assay: 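Uncover factors, including feedback loops, that control dAkt activation in fly cells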 (primary screen)
System: Drosophila Kc167 cells
Knock-down reagent: long dsRNA against Drosophila genes, 250 ng dsRNA per well of a 384-well plate
Timing: 3 days of knock-down, then overnight serum-free starvation before stimulation
Conditions: bovine insulin at 387 nM for 10 minutes after 12 h without serum
Read-out: 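In-cell antibody fluorescence for phospho-dAkt in each well over DNA-dye signal, with log2 residuals expressed as z-scores adjusted for cell count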
Rule for the call: 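Under insulin, a gene counts as a hit if the average z-score of two replicates lies above 2.5 or below -2.5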

After knock-down of Acyp2 the results were inactive.
Silencing of CG2217 + CG42740 came out at: inactive.
Against CG11396, the entry reads inactive.
With knock-down of INPP5E, the record shows inactive.
After knock-down of MESR6, the record shows inactive.
Depletion of Miro gave: inactive.
Knock-down of AhcyL2 came out at: inactive.
After knock-down of CG10508 #1, the record shows inactive.
After knock-down of CG10508 #2, the screen gave inactive.
With knock-down of VAChT #1, the record shows inactive.
VAChT #2 gave inactive.
Prat2 scored inactive.
For CG44085, the values are inactive.
After knock-down of Oga, the screen gave inactive.
After knock-down of RpS21, the screen gave inactive.
Depletion of CG5446 gave: inactive.
For CG6931, the entry reads inactive.
Against Ets65A #1 the deposit lists inactive.
With knock-down of Ets65A #2 the results were inactive.
Knock-down of Ets65A #3 resulted in: inactive.
Against Lpin the deposit lists inactive.
Depletion of CG10864 resulted in: inactive.
Or88a showed inactive.
Depletion of Adck1 came out at: inactive.
Atg12 scored inactive.
Knock-down of apt resulted in: inactive.
With knock-down of CG4328, the screen gave inactive.
CG4928 showed inactive.
Depletion of CG17264 came out at: inactive.
After knock-down of Amnionless the results were inactive.
CG10465 scored inactive.
ath gave inactive.
For Wnt4 #1, the values are inactive.
With knock-down of Wnt4 #2 the results were inactive.
Against CG12105, the entry reads inactive.
For CG10587 the deposit lists inactive.

Records listed so far whose target name begins with A or a:
Acyp2 → Call = inactive
AhcyL2 → Call = inactive
Adck1 → Call = inactive
Atg12 → Call = inactive
apt → Call = inactive
Amnionless → Call = inactive
ath → Call = inactive

Continued.
For CG6659, the entry reads inactive.
Depletion of na resulted in: inactive.
After knock-down of cerv, the screen gave inactive.
After knock-down of CG13116 #1 the results were inactive.
With knock-down of CG13116 #2 the results were inactive.
CG8838 showed inactive.
Knock-down of CNMa gave: inactive.
Against CG12963, the entry reads inactive.
Against PCNA2 the deposit lists inactive.
After knock-down of CG7196 (retired record) #1 the results were inactive.
Against CG7196 (retired record) #2, the entry reads inactive.
Against Zip42C.1, the entry reads inactive.
For CG43322, the values are inactive.
Usp47 showed inactive.
For CG9825 the deposit lists inactive.
After knock-down of CG30356, the record shows inactive.
Against CLS, the entry reads inactive.
With knock-down of l(2)37Cd, the screen gave inactive.
After knock-down of CG7016 the results were inactive.
With knock-down of CG11983 the results were inactive.
For CG7568, the values are inactive.
